Measured values from publication doi:10.1101/2022.05.12.491601.
No constants are given. Whether binding was seen depends on the method and setting. In cells and extracts the contact can be indirect. Here binding means that the protein was enriched with, or labelled near, the bait; the list need not be complete.

Biological target: T1, P2X4 receptor (mouse (endogenous in BMDM)) (UniProt Q9JJX6)
T1 sequence: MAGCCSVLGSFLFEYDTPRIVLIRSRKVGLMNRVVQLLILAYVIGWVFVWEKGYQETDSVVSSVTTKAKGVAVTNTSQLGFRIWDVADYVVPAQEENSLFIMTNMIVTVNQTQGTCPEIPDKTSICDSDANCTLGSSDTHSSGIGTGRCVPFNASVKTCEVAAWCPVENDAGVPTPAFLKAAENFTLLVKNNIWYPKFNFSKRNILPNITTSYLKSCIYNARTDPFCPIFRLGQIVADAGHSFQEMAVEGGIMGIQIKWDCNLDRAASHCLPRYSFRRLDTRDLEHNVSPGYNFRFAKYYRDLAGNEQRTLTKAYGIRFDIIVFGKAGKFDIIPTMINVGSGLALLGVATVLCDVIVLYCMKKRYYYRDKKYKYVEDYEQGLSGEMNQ
Assay: affinity purification with mass spectrometry

B1: ApoE (protein, UniProt P08226 19-311)
chain: EGEPEVTDQLEWQSNQPWEQALNRFWDYLRWVQTLSDQVQEELQSSQVTQELTALMEDTMTEVKAYKKELEEQLGPVAEETRARLGKEVQAAQARLGADMEDLRNRLGQYRNEVHTMLGQSTEEIRARLSTHLRKMRKRLMRDAEDLQKRLAVYKAGAREGAERGVSAIRERLGPLVEQGRQRTANLGAGAAQPLRDRAQAFGDRIRGRLEEVGNQARDRLEEVREHMEEVRSKMEEQTQQIRLQAEIFQARLKGWFEPIVEDMHRQWANLMEKIQASVATNPIITPVAQENQ
binding: binds
